Measured values from article doi:10.1101/583724.
Results are given in words; binding and its absence hold for the method and conditions named. In cells and extracts the contact can be indirect. Here binding means that the protein was enriched with, or labelled near, the bait; the list need not be complete.

Target: S2Lb-GFP (SWD2-LIKE-b, GFP-tagged) (Arabidopsis thaliana)
Assay: affinity purification with mass spectrometry

- binding: binds
B1: CDKC;1 (enzyme, UniProt Q9LFT8 1-505)
chain: MAMASFGQLNLEEPPPIWGSRSVDCFEKLEQIGEGTYGQVYMAKEIKTGEIVALKKIRMDNEREGFPITAIREIKILKKLHHENVIQLKEIVTSPGRDRDDQGKPDNNKYKGGIYMVFEYMDHDLTGLADRPGLRFTVPQIKCYMKQLLTGLHYCHVNQVLHRDIKGSNLLIDNEGNLKLADFGLARSYSHDHTGNLTNRVITLWYRPPELLLGATKYGPAIDMWSVGCIFAELLHAKPILPGKNEQEQLNKIFELCGSPDEKLWPGVSKMPWFNNFKPARPLKRRVREFFRHFDRHALELLEKMLVLDPAQRISAKDALDAEYFWTDPLPCDPKSLPTYESSHEFQTKKKRQQQRQNEEAAKRQKLQHPPLQHSRLPPLQHGGQSHAAPHWPAGPNHPTNNAPPQVPAGPSHNFYGKPRGPPGPNRYPPSGNQSGGYNQSRGGYSSGSYPPQGRGAPYVAGPRGPSGGPYGVGPPNYTQGGQYGGSGSSGRGQNQRNQQYGWQQ
